The values that follow come from patent US10597433B2, “Peptides and combination of peptides for use in immunotherapy against small cell lung cancer and other cancers” (Immatics Biotechnologies GmbH, priority 2015, dated 2020).

The subject of this data set is small cell lung cancer samples. Kind of data set: Identification and label-free LC-MS quantitation of HLA-presented peptides on tumor versus normal tissues (presentation profile/score). The following applies: small cell lung cancer tumors compared to a panel of normal tissues. Set-up: species or system human; key: very highly over-presented on tumors compared to a panel of normal tissues (+++); highly over-presented on tumors compared to a panel of normal tissues (++); over-presented on tumors compared to a panel of normal tissues (+).

“1 (AMLEEVNYI; listed as Homo sapiens) [compound 1]”: the “Peptide Presentation (presentation score)” value (“Peptide Presentation” below) is listed as “+++”. Take “2 (VMFNFPDQATV; listed as Homo sapiens) [compound 2]”: the “Peptide Presentation” value is given as “++”. For the substance “3 (VLAEIDPKQLV; listed as Homo sapiens) [compound 3]”, the “Peptide Presentation” value is reported as “+++”. Take “4 (GLLDPGMLVNI; listed as Homo sapiens) [compound 4]”: the “Peptide Presentation” value is on record as “+”. Take “5 (SLQSLIISV; listed as Homo sapiens) [compound 5]”: the “Peptide Presentation” value is “+”. With “6 (SIMDYVVFV; listed as Homo sapiens) [compound 6]” the entry was “++”. With “7 (GLLGDIAIHL; listed as Homo sapiens) [compound 7]” the entry was “+++”; with “8 (VLIDDSQSIIFI; listed as Homo sapiens) [compound 8]”, “+++”; with “9 (AAAPGEALHTA; listed as Homo sapiens) [compound 9]”, “+”.

As to “10 (ILAAGFDGM; listed as Homo sapiens) [compound 10]”, the “Peptide Presentation” value was “+”. Regarding “11 (KLFAIPILL; listed as Homo sapiens) [compound 11]”, the “Peptide Presentation” value is reported as “+++”. The entry for “15 (SLLTAISEV; listed as Homo sapiens) [compound 15]” is “+”; for “16 (VILDLPLVI; listed as Homo sapiens) [compound 16]” it is “+++”; for “17 (SLMLVTVEL; listed as Homo sapiens) [compound 17]” it is “+”. With “19 (VLLTTAVEV; listed as Homo sapiens) [compound 19]”, the “Peptide Presentation” value is listed as “+”.

Turning to “20 (MLDEILLQL; listed as Homo sapiens) [compound 20]”, the “Peptide Presentation” value was “+”. The entry for “23 (YQIDTVINL; listed as Homo sapiens) [compound 23]” is “+”; for “24 (FLMEEVHMI; listed as Homo sapiens) [compound 24]” it is “+”. The entry for “26 (KMLDEAVFQV; listed as Homo sapiens) [compound 26]” is “+”; for “27 (SLDIITITV; listed as Homo sapiens) [compound 27]” it is “+++”. “29 (NLISQLTTV; listed as Homo sapiens) [compound 29]”: the “Peptide Presentation” value is “++”. With “31 (RLLQDPVGV; listed as Homo sapiens) [compound 31]” the entry was “+”. Regarding “35 (FMGDVFINV; listed as Homo sapiens) [compound 35]”, the “Peptide Presentation” value is on record as “+”. With “37 (SLFYNELHYV; listed as Homo sapiens) [compound 37]”, the “Peptide Presentation” value is “+”. In the case of “39 (GLDPTQFRV; listed as Homo sapiens) [compound 39]”, the “Peptide Presentation” value is recorded as “+++”.

In the case of “40 (GLLEVQVEV; listed as Homo sapiens) [compound 40]”, the “Peptide Presentation” value was “+++”. As for “41 (KAYQELLATV; listed as Homo sapiens) [compound 41]”, the “Peptide Presentation” value is reported as “+++”. With “42 (GLLEDERALQL; listed as Homo sapiens) [compound 42]” the entry was “+++”. With “43 (YLWSEVFSM; listed as Homo sapiens) [compound 43]” the entry was “+++”.

Consider “44 (ALIVGIPSV; listed as Homo sapiens) [compound 44]”, for which the “Peptide Presentation” value is “+++”. The entry for “45 (SLSGEIILHSV; listed as Homo sapiens) [compound 45]” is “+++”; for “46 (ALWVAVPKA; listed as Homo sapiens) [compound 46]” it is “+++”; for “47 (GLLEALLKI; listed as Homo sapiens) [compound 47]” it is “+++”.

With “49 (RLALNTPKV; listed as Homo sapiens) [compound 49]”, the “Peptide Presentation” value is recorded as “++”. Consider “50 (FLLSQIVAL; listed as Homo sapiens) [compound 50]”, for which the “Peptide Presentation” value was “+++”. With “51 (ILDEAGVKYFL; listed as Homo sapiens) [compound 51]” the entry was “+++”. As for “52 (ILASFMLTGV; listed as Homo sapiens) [compound 52]”, the “Peptide Presentation” value is “+++”. On to “54 (HLFDIILTSV; listed as Homo sapiens) [compound 54]”, for which the “Peptide Presentation” value is listed as “++”.

As for “55 (LLIADNPQL; listed as Homo sapiens) [compound 55]”, the “Peptide Presentation” value is listed as “+++”. With “56 (SLFSQMGSQYEL; listed as Homo sapiens) [compound 56]” the entry was “+++”; with “57 (VLIGDVLVAV; listed as Homo sapiens) [compound 57]”, “+++”; with “58 (VLLNINGIDL; listed as Homo sapiens) [compound 58]”, “+++”. The entry for “59 (VLLSGLTEV; listed as Homo sapiens) [compound 59]” is “+++”. With “60 (VVSGATETL; listed as Homo sapiens) [compound 60]” the entry was “+++”; with “61 (YQAPYFLTV; listed as Homo sapiens) [compound 61]”, “+++”; with “62 (VMLPIGAVVMV; listed as Homo sapiens) [compound 62]”, “+++”.

On to “63 (LLMSTENEL; listed as Homo sapiens) [compound 63]”, for which the “Peptide Presentation” value is reported as “++”. Consider “64 (VLFHQLQEI; listed as Homo sapiens) [compound 64]”, for which the “Peptide Presentation” value was “+”.

On to “65 (VMYDLITEL; listed as Homo sapiens) [compound 65]”, for which the “Peptide Presentation” value was “++”. The entry for “66 (YLNLISTSV; listed as Homo sapiens) [compound 66]” is “+++”; for “67 (MLYDIVPVV; listed as Homo sapiens) [compound 67]” it is “+”. With “68 (FLFPVYPLI; listed as Homo sapiens) [compound 68]” the entry was “+”; with “69 (KLFDRSVDL; listed as Homo sapiens) [compound 69]”, “++”; with “70 (TLLWKLVEV; listed as Homo sapiens) [compound 70]”, “+++”. Take “72 (KAIGSLKEV; listed as Homo sapiens) [compound 72]”: the “Peptide Presentation” value is “+++”. For the substance “73 (SLSSYTPDV; listed as Homo sapiens) [compound 73]”, the “Peptide Presentation” value is recorded as “+++”. With “74 (FLDSLSPSV; listed as Homo sapiens) [compound 74]” the entry was “+++”. “75 (SLDLHVPSL; listed as Homo sapiens) [compound 75]”: the “Peptide Presentation” value is reported as “+++”. On to “76 (VLTTVMITV; listed as Homo sapiens) [compound 76]”, for which the “Peptide Presentation” value is “+++”. With “78 (RIIDPEDLKALL; listed as Homo sapiens) [compound 78]” the entry was “+++”; with “79 (RLLEPAQVQQL; listed as Homo sapiens) [compound 79]”, “++”; with “80 (ILMDPSPEYA; listed as Homo sapiens) [compound 80]”, “+++”. As for “81 (LLAEIGAVTLV; listed as Homo sapiens) [compound 81]”, the “Peptide Presentation” value is “++”. The entry for “82 (ALSSVIKEL; listed as Homo sapiens) [compound 82]” is “+”. Take “83 (KLLEIDIDGV; listed as Homo sapiens) [compound 83]”: the “Peptide Presentation” value was “+”.

For the substance “84 (KMFENEFLL; listed as Homo sapiens) [compound 84]”, the “Peptide Presentation” value is given as “+”. On to “85 (FAYDGKDYLTL; listed as Homo sapiens) [compound 85]”, for which the “Peptide Presentation” value is “+”. The entry for “86 (KVIDYVPGI; listed as Homo sapiens) [compound 86]” is “+”. Take “87 (LLQNNLPAV; listed as Homo sapiens) [compound 87]”: the “Peptide Presentation” value is reported as “+”.

As to “88 (TLHRETFYL; listed as Homo sapiens) [compound 88]”, the “Peptide Presentation” value is “+++”. The entry for “89 (IQHDLIFSL; listed as Homo sapiens) [compound 89]” is “+”; for “90 (TLVDNISTMAL; listed as Homo sapiens) [compound 90]” it is “+”. With “95 (ALYSKGILL; listed as Homo sapiens) [compound 95]”, the “Peptide Presentation” value is “+”. With “96 (NLLKLIAEV; listed as Homo sapiens) [compound 96]” the entry was “+”.

Consider “97 (ALLDGTVFEI; listed as Homo sapiens) [compound 97]”, for which the “Peptide Presentation” value is “++”.
